# Results: PubChem BioAssay AID743266 (National Center for Advancing Translational Sciences (NCATS), 2014)
# Protein sequences, listed by entry. Tags and fused reporters are not part of them. Lines headed by an entry give the natural chain unless they say otherwise; changes in a name come on top.
# UniProt Q03431: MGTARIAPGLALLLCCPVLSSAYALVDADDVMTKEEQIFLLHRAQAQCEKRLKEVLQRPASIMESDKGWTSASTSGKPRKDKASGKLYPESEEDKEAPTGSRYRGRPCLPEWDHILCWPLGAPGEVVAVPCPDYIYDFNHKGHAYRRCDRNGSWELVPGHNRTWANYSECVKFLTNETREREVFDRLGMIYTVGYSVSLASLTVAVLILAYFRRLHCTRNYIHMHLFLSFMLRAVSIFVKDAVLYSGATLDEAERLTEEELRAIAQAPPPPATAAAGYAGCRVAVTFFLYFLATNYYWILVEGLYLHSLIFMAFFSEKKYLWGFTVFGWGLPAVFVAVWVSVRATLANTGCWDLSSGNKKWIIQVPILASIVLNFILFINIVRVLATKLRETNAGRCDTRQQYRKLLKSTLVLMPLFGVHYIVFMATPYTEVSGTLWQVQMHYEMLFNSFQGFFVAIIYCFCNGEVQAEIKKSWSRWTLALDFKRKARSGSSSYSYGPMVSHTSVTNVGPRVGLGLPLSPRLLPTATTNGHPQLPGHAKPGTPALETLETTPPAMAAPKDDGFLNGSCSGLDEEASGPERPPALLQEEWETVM
# The campaign covered roughly 410,000 compounds. About 310 (0.076%) were called active. The shares of active, inactive and inconclusive entries below differ from those in the screen. Calls follow the shape of the dose curve; as a rule, active = well fitted activation curve with a large enough effect; inconclusive = small, poorly fitted or top-dose-only effect, or another doubt; inactive = no such curve, though single readings can be large or run the other way. A potency beside an inconclusive call is a rough fit, not a confirmed value.
# Target: Parathyroid hormone/parathyroid hormone-related peptide receptor (Homo sapiens) (UniProt Q03431)
# Assay: qHTS for PTHR1 Agonists: Primary Screen; also: nearly all actives have a fitted effect of over 55% in size
# Conditions: HEK293 GP2 PTHR1 cells, GloSensor cAMP luminescence, 1 h; activation: at 115 µM (top of the series) unless noted; series mostly up to 115 µM
# In short: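 HEK-293-derived GP2 cells expressing PTHR1 and a GloSensor cAMP reporter, 3,000/well, plated overnight, given luciferin plus IBMX (each 0.5 mM as added) for 1 h at 37 °C, then compound for 1 h at 37 °C. Luminescence was read after 15 min at room temperature.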
# Potency is read from the fitted curve at half-maximal effect.
Compound,Potency,activation,outcome
CCn1c2c(c(=O)n3ncc(C(=O)Nc4ccc(C(=O)OC)cc4)c13)CN(Cc1ccc(OC)cc1)CC2,"inconclusive: 5.01 µM [activator, partial curve]",–,–
Cc1cc(C(=O)N2CCc3c([nH]c4ccccc34)C2c2cccc(Cl)c2)nn1C (stereo not given),–,inactive: 9.61%,–
CC(C)c1ccc(N(C(=O)C(F)(F)F)C(C(=O)NC2CCCCC2)c2ccncc2)cc1 (stereo not given),"inconclusive: 35.5 µM [activator, single point]",–,–
CC(C)C(=O)N1N=C2CCCCC2C1(O)C(F)(F)F (stereo not given),–,inconclusive: 39.4% [activator],–
Cc1c(CCC(=O)NCc2ccc(F)cc2)c(=O)oc2cc(O)ccc12,–,inactive: -44.7%,–
COc1ccc(CCNC(=O)c2ccc3c(Cl)c4c(nc3c2)CCCC4)cc1OC,–,inactive: -26%,–
Cc1cc(C)cc(CN2CCC(Oc3ccc(C(=O)N4CCCC4)cc3)CC2)c1,–,inconclusive: 57.4% [activator],–
COc1cccc(CN2CCNC(=O)C2CC(=O)NCCCN2CCCC2=O)c1 (stereo not given),"inconclusive: 17.8 µM [activator, partial curve, poor fit]",–,–
O=C(Cc1ccccc1)Nc1ccc(NC(=O)c2cccs2)cc1Cl,–,–,inactive
Cc1cc(C)cc(-n2nnc(C(=O)NCc3ccc4c(c3)OCO4)c2N)c1,"inconclusive: 50.1 µM [activator, single point]",–,–
COc1ccc(C(=O)C2CCCN(C(=O)Cn3nc(C)cc3C)C2)cc1F (stereo not given),"inconclusive: 158 µM [activator, single point]",–,–
O=C(CNC(=O)c1cccc(-n2cnnn2)c1)Nc1ccc(F)c(F)c1,"inconclusive: 56.2 µM [activator, single point]",–,–
CCCN(CCC)C(=O)Cn1c(=O)n(Cc2ccc(C(=O)NCCc3ccc(OC)c(OC)c3)cc2)c(=O)c2ccccc21,–,inconclusive: -97.2% [activator],–
COc1ccc(Cc2c(-c3cccc(Cl)c3)nc3ccc(Cl)cn23)c(C)c1,–,inactive: -14.4%,–
CN(C)c1ccc(C(CNS(=O)(=O)c2ccc(Cl)cc2)N2CCCC2)cc1 (stereo not given),–,inconclusive: 37.8% [activator],–
Cc1ccc(NC(=O)COC(=O)C2COc3ccccc3O2)cc1S(=O)(=O)N1CCOCC1 (stereo not given),"inconclusive: 126 µM [activator, single point]",–,–
COc1cccc(/C=C/C(=O)N(C)CC(=O)Nc2ccc(Cl)c(C(F)(F)F)c2)c1,–,inconclusive: 30.1% [activator],–
O=C(NCCNC(=O)c1ccccn1)c1ccc(Cl)cc1,–,inconclusive: 52.4% [activator],–
CC1=C(C)C(=O)C(CCCCC#CCCCC#CCO)=C(C)C1=O,–,inactive: -33.3%,–
CCOCC(=O)Nc1nnc(COC)s1,"inconclusive: 56.2 µM [activator, single point]",–,–
CCC(Oc1ccccc1F)C(=O)Nc1c(C(=O)c2ccccc2)oc2ccccc12 (stereo not given),–,–,inactive
Cc1ccnc(NS(=O)(=O)c2ccc(NS(C)(=O)=O)cc2)n1,"inconclusive: 141 µM [activator, single point]",–,–
COc1cc(C#N)ccc1OC(=O)c1cccc(S(=O)(=O)N2CCN(C)CC2)c1,–,inactive: -15.4%,–

# Reprinted at random: three compounds from above
Compound,Potency,activation,outcome
CCCN(CCC)C(=O)Cn1c(=O)n(Cc2ccc(C(=O)NCCc3ccc(OC)c(OC)c3)cc2)c(=O)c2ccccc21,–,inconclusive: -97.2% [activator],–
CCOCC(=O)Nc1nnc(COC)s1,"inconclusive: 56.2 µM [activator, single point]",–,–
CC(C)c1ccc(N(C(=O)C(F)(F)F)C(C(=O)NC2CCCCC2)c2ccncc2)cc1 (stereo not given),"inconclusive: 35.5 µM [activator, single point]",–,–

# More entries follow.

Compound,Potency,activation,outcome
CCOC(=O)c1c(S(=O)(=O)N2CCN(C3CCCCC3)CC2)c(C)n(C)c1C,"inconclusive: 50.1 µM [activator, partial curve]",–,–
O=C(NC(=S)Nc1cccc(C(F)(F)F)c1)c1ccc2nonc2c1,–,inactive: -29.3%,–
Cc1ccc(-n2ncc(C(=O)Nc3ccc(C)c(F)c3)c2C2CCN(C(=O)OC(C)(C)C)CC2)cc1C,"inconclusive: 112 µM [activator, single point]",–,–
Cc1nc2ccccc2c2oc(C(=O)NCCCN3CCCC(C)C3)cc12 (stereo not given),"inconclusive: 112 µM [activator, single point]",–,–
Cc1n[nH]c(=S)n1/N=C/c1ccc(OCc2ccc(Cl)cc2)cc1,"inconclusive: 39.8 µM [activator, single point]",–,–
CCCC(=O)N(c1ccc(OC)cc1)C1C=CS(=O)(=O)C1 (stereo not given),"inconclusive: 39.8 µM [activator, single point]",–,–
Cc1cc(C)c2nc(-c3ccncc3)cc(C(=O)N3CCN(Cc4ccccc4Cl)CC3)c2c1,–,–,inactive
CCOc1ccc(C(C(=O)NC2CCCCC2)N(C(=O)c2csnn2)C2CC2)cc1 (stereo not given),–,inconclusive: 32.4% [activator],–
CC(C)CC(N)c1csc(NC(=O)C(c2ccccc2)c2ccccc2)n1 (stereo not given),"inconclusive: 44.7 µM [activator, single point]",–,–
COc1ccc(S(=O)(=O)N2CCN(c3ccccc3F)CC2)cc1-c1noc(C)n1,–,–,inactive
O=C(COc1ccc(Cl)cc1)OCC(=O)N1CCCC1,"inconclusive: 31.6 µM [activator, partial curve, poor fit]",–,–
N=C1/C(=C/c2ccc(OCc3ccccc3)cc2)C(=O)N=C2SC(CC(=O)N3CCOCC3)=NN12,–,–,inactive
Cc1ccc(NC(=O)Nc2nnc(N(CC(C)C)CC(C)C)s2)cc1Cl,"inconclusive: 89.1 µM [activator, single point]",–,–
CCC1CCCCN1S(=O)(=O)c1ccc([N+](=O)[O-])cc1 (stereo not given),"inconclusive: 11.2 µM [activator, partial curve, poor fit]",–,–
CC1=CC(C)(C)N(C(=O)CSc2nnc(N)s2)c2c(C)cc(C)cc21,–,inactive: -0.774% [at 57.5 µM],–
CCOc1ccc(C(=O)N(CC)CC(=O)Nc2ccc3c(c2)OCCO3)cc1OCC,"inconclusive: 4.47 µM [activator, full curve, poor fit]",–,–
CN(C(=O)COC(=O)CSc1ccc([N+](=O)[O-])cc1)c1ccccc1,"inconclusive: 79.4 µM [activator, partial curve, poor fit]",–,–
OC(COC(c1ccc(F)cc1)c1ccc(F)cc1)CN1CCc2ccccc2C1 (stereo not given),–,–,inactive
C1CCC(C23CC4CC(CC(C4)C2)C3)NC1 (stereo not given),"inconclusive: 50.1 µM [activator, single point]",–,–
CC1CC(C)CN(CC(O)COCc2ccccc2F)C1 (stereo not given),–,inconclusive: -19.6% [activator],–
Cc1cc(S(=O)(=O)Nc2ccc3ccccc3c2)c(C)s1,–,inactive: -8.92%,–
CCOC(=O)NC1(C(F)(F)F)N=C(c2ccccc2)NC1=O (stereo not given),"inconclusive: 28.2 µM [activator, partial curve, poor fit]",–,–
